Results from patent US20230194511A1, “Compound Fixing Method, Detection Method, Screening Method, Substrate Used in Same, Compound Fixing Agent, and Fixing Kit” (priority 2020, published 2023).

Assays:
[1] = system: anti-penicillin antibodies; assay: Compound microarray, detection with anti-penicillin antibodies (Examples 3 and 4, clone not stated); format: binding; settings: immobilized onto a glass slide
[2] = system: anti-gentamycin antibodies; assay: Compound microarray, detection of immobilized compound with anti-gentamycin antibodies; format: binding, mouse; settings: immobilized onto a glass slide
Experimental: Further, compounds of bovine serum albumin (BSA) covalently bonded to these 14 compounds in advance (Imgen BioSciences) were printed on glass slides as control samples for comparison. The compounds mixed with HSA were each dissolved in solution A for protein microarrays only (Fukushima Protein Factory) to a concentration of 0.5 mM. Furthermore, HSA was prepared and mixed with the solutions A including the compounds, bringing the final concentrations to 0.1 micrograms/microliter. It should be noted that the printing of each compound on a glass slide was performed by spotting microdroplets of approximately 2 to 4 nl on the glass slide by using an ultratrace dispensing system (Micro Diagnostic).
The compound microarrays printed with the compounds were immersed in ethanol and shaken for 30 seconds at room temperature. Subsequently, the compound microarrays were immersed in ultrapure water and shaken for 30 seconds at 26° C. It should be noted that the shaking by ultrapure water was performed twice. For solution replacement, the compound microarrays were immersed in solution A for protein microarrays only (Fukushima Protein Factory, Fukushima, Japan) and shaken for about five minutes at 26° C.
The compound microarrays treated as described above were immersed in Blocking One (Nacalai Tesque, Kyoto, Japan) and shaken for one hour at 26° C. Subsequently, the compound microarrays were immersed in solution A for protein microarrays only and shaken for about five minutes at 26° C.
Using a solution obtained by adding 1/4000 volume of Goat Reference Antibody Mixture I (Fukushima Protein Factory) to the primary antibody diluent for protein microarrays only (Fukushima Protein Factory), one of eight mouse monoclonal anti-compound antibodies (Table 2) was diluted to 1 microgram/milliliter.
Two milliliters of the solution with the diluted primary antibody were added to a P-DE1 cassette for protein microarrays (Fukushima Protein Factory). The compound microarrays were immersed therein, the lid of the cassette was placed thereon, the cassette was sealed with a special clip, and reactions were permitted with shaking for about 17 hours at 37° C.
After the reaction with the primary antibody, the compound microarrays were immersed in solution A for protein microarrays only and shaken for one minute at 26° C. It should be noted that this process was repeated three times.
1/500 volume of Cy3-labeled anti-goat IgG (Jackson) and Alexa Fluor 647-labeled anti-mouse IgG antibody (Jackson) were added to a secondary antibody diluent for protein microarrays only, and 2 milliliters of the solution were added to a P-DE1 cassette for protein microarrays. The compound microarrays were immersed therein, the lid of the cassette was placed thereon, the cassette was sealed with a special clip, and reactions were permitted with shaking for about one hour at 26° C.
After the reaction with the secondary antibodies, the compound microarrays were immersed in solution A for protein microarrays only and shaken for one minute at 26° C. It should be noted that this process was repeated three times.
It should be noted that this process was repeated three times.

[3] = compound mixed with apo-transferrin
[4] = compound mixed with holo-transferrin
[5] = compound mixed with ovalbumin (egg white)

Molecule	signal intensity relative to the compound mixed with HSA [1, 3]	signal intensity relative to the compound mixed with HSA [1, 4]	signal intensity relative to the compound mixed with HSA [1, 5]	signal intensity relative to the compound mixed with HSA ([1]; compound mixed with ovalbumin)	signal intensity relative to the compound mixed with HSA ([2]; compound mixed with alpha 2-macroglobulin)	signal intensity relative to the compound mixed with HSA [2, 3]	signal intensity relative to the compound mixed with HSA ([2]; compound mixed with lysozyme (ThermoPhage))	signal intensity relative to the compound mixed with HSA ([2]; compound mixed with lysozyme (egg allergen))	signal intensity relative to the compound mixed with HSA [2, 5]	signal intensity relative to the compound mixed with HSA ([2]; compound mixed with ovalbumin)
CC1(C)S[C@@H]2[C@H](NC(=O)Cc3ccccc3)C(=O)N2[C@H]1C(=O)O [benzyl penicillin potassium]	approximately 1.3 times	approximately 1.3 times	approximately 2.1 times	approximately 1.8 times	–	–	–	–	–	–
CC1(C)S[C@@H]2[C@H](NC(=O)Cc3ccccc3)C(=O)N2[C@H]1C(=O)[O-].[Na+] [penicillin G sodium]	–	approximately 1.2 times	approximately 1.6 times	approximately 2.3 times	–	–	–	–	–	–
gentamycin sulfate	–	–	–	–	approximately 1.7 times	approximately 2.4 times	approximately 1.4 times	approximately 1.4 times	approximately 5.6 times	approximately 3.0 times
